Results are given in words; binding and its absence hold for the method and conditions named. Binding seen in cells or lysates may run through a third protein. A result given as binding can be weak or reduced; the word gives no strength. For some of these results: Tags and fused reporters may be left off the sequences shown.
Columns and labels:
[1] = biological target: T1, Cysteine-rich angiogenic inducer 61 (CYR61), endogenous (human (endogenous in HeLa, MDA-MB-231, H1299)) (UniProt O00622); experiment: co-IP; endogenous proteins; cell lysates (RIPA buffer) of HeLa, for tubulins also MDA-MB-231 and H1299, immunoprecipitated with antibody or IgG overnight at 4 °C, washed with NETN buffer, immunoblot
T1 sequence: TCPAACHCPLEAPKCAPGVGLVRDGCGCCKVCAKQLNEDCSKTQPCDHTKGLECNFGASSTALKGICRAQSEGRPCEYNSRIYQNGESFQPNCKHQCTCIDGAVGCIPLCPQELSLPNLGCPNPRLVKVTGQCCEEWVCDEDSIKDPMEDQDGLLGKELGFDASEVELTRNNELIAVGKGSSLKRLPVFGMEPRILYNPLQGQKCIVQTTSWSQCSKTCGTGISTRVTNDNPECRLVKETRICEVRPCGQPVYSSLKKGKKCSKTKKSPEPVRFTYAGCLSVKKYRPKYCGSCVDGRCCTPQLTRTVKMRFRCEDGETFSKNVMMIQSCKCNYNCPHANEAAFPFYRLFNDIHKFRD

[2] = biological target: PLK1 C-terminal polo-box domain (PBD) alone (human); experiment: co-IP; HeLa cells transfected with CYR61 and PLK1 wild type, deletion mutants or single domains; anti-Myc (Figure 3G) or anti-Flag (Figure 3H) beads; immunoblot
[3] = biological target: PLK1 N-terminal kinase domain (KD) alone (human); experiment: as above

α-tubulin, endogenous
binding [1]: binds

β-tubulin, endogenous
binding [1]: binds

B1: Myc-CYR61 wild type (HeLa) (protein, UniProt O00622 25-381)
chain: T1 sequence
binding [2]: binds
binding [3]: binds

Reference: article PMC11186368
